Test results taken from PubChem BioAssay AID1471 (National Center for Advancing Translational Sciences (NCATS), 2008).
“And” between values parts separate entries of the source, which are not always exact repeats. Identical values can stand only once. The whole screen tested about 230,000 compounds, of which about 310 (0.13%) were called active. This list was built around the results that the source calls inconclusive (neither active nor inactive); the mix of calls is not that of the screen. Calls follow the shape of the dose curve; as a rule, active = well fitted activation curve with a large enough effect; inconclusive = small, poorly fitted or top-dose-only effect; inactive = no such curve, though single readings can be large or run the other way. Potencies of inconclusive entries are doubtful fits and often do not repeat.

Experiment: qHTS Multiplex Assay to Identify Dual Action Probes in a Cell Model of Huntington: Cytoprotection (ATP); also: nearly all actives have a fitted effect of over 45% in size;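 as to cytoprotection (ATP increase): toxic huntingtin expression switched on by the ecdysone agonist tebufenozide; % of control where 0% means no effect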
Details: PC12 HTT-Q103 induced, ATP luminescence, 40 h; cytoprotection (ATP increase): at 56.4 µM (top of the series) unless noted
Summary of the method: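 Huntington model: PC12 line, ecdysone-inducible HTTQ103 exon1–GFP, tebufenozide 100 nM. Test articles in a dose series. Endpoint luminescence from cellular ATP.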
Potency is read from the fitted curve at half-maximal effect.

Compound | Potency | cytoprotection (ATP increase)
CCOC(=O)c1[nH]c(C)c(/C(O)=C2\C(=O)C(=O)N(CCCN(C)C)C2c2cccnc2)c1C (centres undefined) | inconclusive: 4.47 µM [activator, single point] | 
NS(=O)(=O)c1ccc(CCNC(=O)CSCc2ccccc2)cc1 | inconclusive: 3.55 µM [activator, single point] | 
Cn1c(N)c(C(=O)COC(=O)c2ccc(Cl)c(S(=O)(=O)N3CCCC3)c2)c(=O)n(C)c1=O | inconclusive: 0.794 µM [activator, single point] | 
Cc1nnc(Cl)c2nn(-c3ccccc3)c(C)c12 | inconclusive: 0.794 µM [activator, full curve, poor fit] | 
C=CC1=C(C(=O)O)N2C(=O)[C@@H](NC(=O)/C(=N\OCC(=O)O)c3csc(N)n3)[C@@H]2SC1 | inconclusive: 14.1 µM [activator, single point] | 
CC(=O)c1cccc(NC(=O)NNC(=O)c2ccc(Cl)cc2Cl)c1 | inactive | 
Cc1onc(-c2ccccc2)c1C(=O)NNC(=S)NC(=O)c1ccc2c(c1)OCO2 |  | inactive: -15% [at 10 µM]
COc1ccccc1CNc1ncnc2ccc(-c3ccoc3)cc12 | inactive | 
Cc1ccc(O)c(C(=O)c2cnc3c(c2)CN(CCC(C)C)C(=O)N3)c1 | inconclusive: 1.12 µM [activator, single point] | 
CCOC(=O)c1ccccc1-c1csc(N)n1 | inconclusive: 0.708 µM [activator, single point] | 
COc1ccc(/C=C/c2c([N+](=O)[O-])c(=O)n(C)c(=O)n2C)cc1 | inconclusive: 12.6 µM [activator, single point] | 
Oc1cccc(/C=N/Nc2cc(N3CCOCC3)nc(N3CCOCC3)n2)c1 | inconclusive: 3.55 µM [activator, single point] | 
NC/C=C\C(=O)O | inactive and inconclusive: 112 nM [activator, full curve] | 
CCCc1cc2c(=O)c(-c3nc4ccccc4s3)c(COCC(=O)O)oc2cc1O | inconclusive: 0.0071 µM [activator, full curve, poor fit] | 
Cc1ccc(OCC(=O)NC2CC(C)(C)NC(C)(C)C2)c(C)c1 | inconclusive: 4.47 µM [activator, single point] | 
c1ccc(CNc2ncnc3scc(-c4cccs4)c23)nc1 | inconclusive: 0.355 µM [activator, partial curve] | 
O=C(CN1CCC(NC(=O)c2ccccc2Cl)CC1)NCc1ccco1 | inconclusive: 0.447 µM [activator, partial curve] | 
CN(C)CCOC(=O)[C@@H](c1ccccc1)C1(O)CCCC1 | active: 5.62 µM | 
Cc1cc(Br)ccc1SCC(=O)OCC(=O)Nc1ncc(C(F)(F)F)cc1Cl | inconclusive: 1.26 µM [activator, partial curve] | 
CN(CC(=O)OCC(N)=O)S(=O)(=O)c1ccc(Cl)cc1 | inconclusive: 35.5 µM [activator, single point] | 
COc1ccc(/C=C/C(=O)c2cccs2)c(OC)c1 | inconclusive: 0.112 µM [activator, full curve] | 
O=C(c1csnn1)N1CCC2(CC1)CN(C(c1ccccc1)c1ccccc1)C2 | inconclusive: 0.141 µM [activator, full curve] | 

Compound | Potency | cytoprotection (ATP increase)
C/C(=N/NC(=O)c1ccoc1C)c1ccc(NC(=O)c2ccncc2)cc1 | inconclusive: 1.26 µM [activator, single point] | 
c1cnc(N2CCN(Cc3ccc4c(c3)OCO4)CC2)nc1 | inconclusive: 14.1 µM [activator, partial curve, poor fit] | 
CCOC(=O)c1ccccc1NC(=O)c1c(O)c2ccccc2n(CC)c1=O | inconclusive: 17.8 µM [activator, partial curve] | 
C=CCN1C(=O)C(CC(=O)O)SC1=Nc1ccc(C)cc1 (centres undefined) | inconclusive: 1.26 µM [activator, full curve, poor fit] | 
COc1ccc(S(=O)(=O)/N=C2/NC(=O)/C(=C\c3ccco3)S2)cc1 |  | inactive: -3.61% [at 10 µM]
O=c1[nH]c(=S)[nH]c2c1CN(CCCN1CCOCC1)CN2 |  | inactive: -0.86% [at 10 µM]
COc1ccc(C(=O)/C=C/Nc2ccc(S(=O)(=O)Nc3cccc(C(C)=O)c3)cc2)cc1 | inconclusive: 1 µM [activator, single point] | 
CCc1c(C(=O)NC2CCCC2)csc1C |  | inactive: 44% [at 10 µM]
O=C(N/N=C/c1cccnc1)c1cc2ccccc2o1 | inconclusive: 1.12 µM [activator, single point] | 
CC1CN(C(=S)NC(=O)C2CCCCC2)CC(C)O1 (centres undefined) | inconclusive: 3.16 µM [activator, single point] | 
CCOC(=O)OCC1OC(C#Cc2ccccc2)C=CC1OC(=O)OCC (centres undefined) | inconclusive: 0.158 µM [activator, full curve, poor fit] | 
Cc1cccc(CNc2ncnc3ccc(-c4ccoc4)cc23)c1 | inconclusive: 20 µM [activator, partial curve] | 
O=C(O)/C(=C/c1cccnc1)NC(=O)c1ccccc1 | inconclusive: 0.251 µM [activator, full curve, poor fit] | 
CCCS(=O)(=O)c1c(S(=O)(=O)CCC)c2ccc(C(N)=O)cn2c1C(=O)c1ccc(OC)cc1 |  | inactive: -4.3% [at 10 µM]
O=C(CCCOc1ccccc1)Nc1cccc([N+](=O)[O-])c1 | inconclusive: 10 µM [activator, partial curve, poor fit] | 
O=C(NNC(=S)Nc1ccccc1)C1CCCCC1 | inactive | 
CCOC(=O)CSc1nnc(CNC(=O)c2ccc(S(=O)(=O)N3CCCC3)cc2)n1C |  | inactive: 2.85% [at 10 µM]
CCOC(=O)C1C(=O)CC(C)(O)C(C(=O)OCC)C1c1ccc(N(CC)CC)cc1 (centres undefined) |  | inactive: -1.49% [at 10 µM]
O=[N+]([O-])c1ccc(Sc2cccc3cccnc23)c([N+](=O)[O-])c1 | inconclusive: 15.8 µM [activator, single point] | 
CC(=O)Nc1ccc(S(=O)(=O)Oc2ccc(/C=C3\SC(N)=NC3=O)cc2)cc1 | inactive | 
CS(=O)(=O)N1CCC2(CCN(Cc3ccc(C#N)cc3)CC2)CC1 | inconclusive: 0.0056 µM [activator, full curve, poor fit] | 
Cc1c(NS(=O)(=O)c2ccc(N3CCCCC3)c([N+](=O)[O-])c2)c(=O)n(-c2ccccc2)n1C | inconclusive: 0.0891 µM [activator, partial curve, poor fit] | 

Compound | Potency | cytoprotection (ATP increase)
O=C(NCCN1CCCC1)c1ccccc1Cl | inconclusive: 0.562 µM [activator, single point] | 
Cc1ccc(OC(=O)C23CC4CC(CC(C4)C2)C3)c(C)n1 | inconclusive: 0.126 µM [activator, full curve, poor fit] | 
CN(C)c1ccc(/C=C/C(O)=C2/C(=O)N(C)C3(C)CC2c2ccccc2O3)cc1 (centres undefined) |  | inactive: -3.26% [at 10 µM]
Cc1ccc(NC(=O)C(=Cc2ccc(C(=O)O)cc2)C(=O)Nc2ccc(C)cc2C)c(C)c1 | inconclusive: 5.62 µM [activator, single point] | 
CNc1cc(N2CCCC2)ccc1[N+](=O)[O-] | inconclusive: 2.82 µM [activator, single point] | 
O=C(CP(=O)(c1ccccc1)c1ccccc1)N/N=C/c1cc(Br)cc(Br)c1O | inconclusive: 5.62 µM [activator, single point] | 
CC(C)(C)n1nnc(CCc2nnn(C(C)(C)C)n2)n1 | inconclusive: 2.82 µM [activator, partial curve] | 
Cc1cc(Cl)ccc1OCCCC(=O)OCC(=O)c1c(N)n(C)c(=O)n(C)c1=O | inconclusive: 4.47 µM [activator, single point] | 
COc1ccc(-c2nnc3n(CCc4ccccc4)c(=O)c4ccccc4n23)c(OC)c1 | inconclusive: 1 µM [activator, single point] | 
N#CC1=C(N)SC(N)=C(C#N)C1c1cccc(O)c1 | inactive | 
COc1ccc(CN2CC(=O)N(c3ccccc3C)C2=S)cc1OC | inconclusive: 5.62 µM [activator, single point] | 
CN(C)[C@@H]1C(=O)C(C(N)=O)=C(O)[C@]2(O)C(=O)C3=C(O)c4c(O)ccc(Cl)c4[C@H](O)[C@H]3C[C@@H]12 | inconclusive: 0.0501 µM [activator, full curve, poor fit] | 
O=C(c1cnccn1)N1CCC[C@@]2(CCN(Cc3nccs3)C2)C1 | inconclusive: 12.6 µM [activator, single point] | 
CC(=O)NC1C(Oc2cccc(C)c2)OC2COC(c3ccco3)OC2C1O (centres undefined) | inconclusive: 0.562 µM [activator, full curve, poor fit] | 
N=C(N)c1ccc(N2CCN(C3CCN(CC(=O)O)CC3)CC2)cc1 | inactive | 
Cc1occc1-c1n[nH]c(=S)n1CC(C)C |  | inactive: 5.68% [at 10 µM]
CCN1CCCc2cc(CN(CCN3CCOCC3)C(=S)Nc3ccccc3OC)ccc21 | inactive | 
CCOC(=O)CNc1oc(-c2ccccc2)nc1-c1ccccc1 | inconclusive: 0.562 µM [activator, full curve, poor fit] | 
COc1c2c(cc3c1C(NC(N)=O)[N+](C)(C)CC3)OCO2 (centres undefined) | inconclusive: 3.55 µM [activator, single point] | 
Cc1cccc(N2C(=O)C(O)=C(C(=O)c3cccs3)C2c2ccccc2)n1 (centres undefined) | inconclusive: 5.62 µM [activator, single point] | 
